Measured values published in publication doi:10.1101/2024.05.31.596839.
These are yes or no findings as the source states them, for the method shown. Some binding calls cover weakened binding; strength is not graded here.

T1: SoYb CS domain (Drosophila) (UniProt Q9VL52)
T1 sequence: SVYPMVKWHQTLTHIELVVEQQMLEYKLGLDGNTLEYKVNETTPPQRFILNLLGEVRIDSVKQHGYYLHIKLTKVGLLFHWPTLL

T2: BoYb CS_MUT2 (Drosophila) (UniProt Q9VNP5)
T2 sequence: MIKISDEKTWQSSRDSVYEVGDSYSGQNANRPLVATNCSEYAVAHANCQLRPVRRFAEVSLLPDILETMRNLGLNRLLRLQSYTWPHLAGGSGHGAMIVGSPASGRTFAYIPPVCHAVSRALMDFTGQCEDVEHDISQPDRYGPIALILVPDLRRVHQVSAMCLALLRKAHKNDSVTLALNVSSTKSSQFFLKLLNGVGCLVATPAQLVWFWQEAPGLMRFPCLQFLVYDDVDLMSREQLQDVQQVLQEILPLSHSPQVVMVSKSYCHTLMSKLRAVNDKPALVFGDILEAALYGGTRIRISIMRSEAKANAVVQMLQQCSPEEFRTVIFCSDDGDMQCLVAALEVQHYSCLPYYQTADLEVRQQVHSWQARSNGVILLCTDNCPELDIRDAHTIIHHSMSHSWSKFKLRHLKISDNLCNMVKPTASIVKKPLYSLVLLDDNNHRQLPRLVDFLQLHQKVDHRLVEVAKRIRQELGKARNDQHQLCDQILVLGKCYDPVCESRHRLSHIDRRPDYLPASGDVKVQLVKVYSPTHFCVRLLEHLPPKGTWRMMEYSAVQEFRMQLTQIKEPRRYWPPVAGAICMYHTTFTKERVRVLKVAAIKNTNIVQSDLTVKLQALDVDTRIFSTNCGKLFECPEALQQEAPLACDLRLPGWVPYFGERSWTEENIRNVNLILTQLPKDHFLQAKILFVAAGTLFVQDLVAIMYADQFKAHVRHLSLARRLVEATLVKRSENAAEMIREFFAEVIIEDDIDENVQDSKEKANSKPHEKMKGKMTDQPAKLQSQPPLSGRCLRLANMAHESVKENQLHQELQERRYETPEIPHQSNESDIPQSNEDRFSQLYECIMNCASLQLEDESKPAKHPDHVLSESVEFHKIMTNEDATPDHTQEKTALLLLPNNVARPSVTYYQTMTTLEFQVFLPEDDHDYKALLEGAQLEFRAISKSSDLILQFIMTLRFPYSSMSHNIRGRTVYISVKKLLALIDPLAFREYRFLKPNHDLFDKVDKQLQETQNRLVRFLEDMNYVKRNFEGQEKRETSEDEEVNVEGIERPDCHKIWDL

T3: BoYb CS_MUT1 (Drosophila) (UniProt Q9VNP5)
T3 sequence: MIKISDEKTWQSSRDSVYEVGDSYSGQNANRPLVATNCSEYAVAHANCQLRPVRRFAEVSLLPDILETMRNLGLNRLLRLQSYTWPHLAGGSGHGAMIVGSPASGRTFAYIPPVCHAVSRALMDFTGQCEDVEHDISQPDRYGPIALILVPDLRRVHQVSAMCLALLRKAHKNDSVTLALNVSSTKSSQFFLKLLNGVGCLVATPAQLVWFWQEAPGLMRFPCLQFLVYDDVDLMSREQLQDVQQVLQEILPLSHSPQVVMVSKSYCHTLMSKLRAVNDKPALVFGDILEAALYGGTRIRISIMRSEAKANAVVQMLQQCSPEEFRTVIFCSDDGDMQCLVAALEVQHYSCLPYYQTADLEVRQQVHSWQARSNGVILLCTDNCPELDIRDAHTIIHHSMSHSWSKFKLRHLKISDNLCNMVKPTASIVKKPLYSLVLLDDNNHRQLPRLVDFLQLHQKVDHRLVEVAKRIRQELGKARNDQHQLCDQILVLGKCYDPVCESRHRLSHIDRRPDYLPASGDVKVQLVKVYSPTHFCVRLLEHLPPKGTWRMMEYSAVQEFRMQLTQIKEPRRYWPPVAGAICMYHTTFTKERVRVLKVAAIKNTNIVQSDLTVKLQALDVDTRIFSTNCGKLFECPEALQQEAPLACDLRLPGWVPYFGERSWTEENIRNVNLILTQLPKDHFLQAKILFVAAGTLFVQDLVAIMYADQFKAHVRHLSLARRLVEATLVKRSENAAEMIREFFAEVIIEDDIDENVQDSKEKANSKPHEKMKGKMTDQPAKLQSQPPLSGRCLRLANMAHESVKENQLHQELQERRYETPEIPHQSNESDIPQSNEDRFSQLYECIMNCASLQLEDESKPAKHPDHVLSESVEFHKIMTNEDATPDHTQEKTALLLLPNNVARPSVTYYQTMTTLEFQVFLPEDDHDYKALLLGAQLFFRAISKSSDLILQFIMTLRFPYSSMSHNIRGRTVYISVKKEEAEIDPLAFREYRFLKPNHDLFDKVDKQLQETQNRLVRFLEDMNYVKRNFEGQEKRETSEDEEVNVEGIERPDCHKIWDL

T4: Vasa (Drosophila) (UniProt P09052)
T4 sequence: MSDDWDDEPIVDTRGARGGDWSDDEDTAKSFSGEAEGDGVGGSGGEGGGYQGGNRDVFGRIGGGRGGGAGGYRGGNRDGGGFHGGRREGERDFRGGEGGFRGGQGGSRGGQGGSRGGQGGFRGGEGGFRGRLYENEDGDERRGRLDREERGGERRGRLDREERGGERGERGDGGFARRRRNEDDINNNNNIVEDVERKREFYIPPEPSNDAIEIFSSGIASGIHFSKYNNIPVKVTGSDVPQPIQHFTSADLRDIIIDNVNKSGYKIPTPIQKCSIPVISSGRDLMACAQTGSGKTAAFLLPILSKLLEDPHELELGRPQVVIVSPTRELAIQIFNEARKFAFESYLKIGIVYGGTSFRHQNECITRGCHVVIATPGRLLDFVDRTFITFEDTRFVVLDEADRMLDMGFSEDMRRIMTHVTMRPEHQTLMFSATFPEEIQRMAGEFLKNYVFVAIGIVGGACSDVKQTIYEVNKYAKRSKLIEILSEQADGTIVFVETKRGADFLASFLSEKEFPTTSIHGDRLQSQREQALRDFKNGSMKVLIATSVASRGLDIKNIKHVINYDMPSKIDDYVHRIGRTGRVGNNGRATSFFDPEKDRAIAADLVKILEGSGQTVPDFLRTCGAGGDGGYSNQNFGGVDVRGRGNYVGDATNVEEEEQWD

B1: Vret-C (domain or fragment, UniProt Q9VCU7 178-691)
chain: FRPPLVTKDDYKRGSLLATNDPIQRYLNVKYEFALERHDIYKLKDETRIPQVVLHFRSGRTIPLSTVAVTEEDKTKSLLEDGVSKCVVCQNWTDTFCKLCKMPFCNASCFADVAEQHKQACGKGEILNLDEKVGRKYPKPGLPPSGSKVRITAFEQTNVVYVRSADIQIDIAYYTVLTEVMMLGKDASKLQSTPVCGQIVLYKFEGHMSRAMVLNVDNIKEIYVVFIDFGSVEVTQLERLYECSSYLAGLTCYPVAVKLRGVPRRFVGPNIREVMYELDQSLVFNIKYSSREYDTSKGMQVVVMTEIDINRSLNRLFKTILTPVEPSVSDLGYKEDCLPYIPLHCGKNINVVVMDNTFIQCGFIYCTSIDLAYEVTKMQRDIQEYGEKIAKCATYAPPINELCIAKYEGKWRRGLSVELVGDGYPSILFIDYGNIVPTHVTDIRPYPPQFIFPIMTTQLDLIGVPEKPTDEQIKWLDKNYPIGSVITCSEITFDEETNSYSTRIEKLQEFLSLD
B2: Krimper (protein, UniProt A1ZAC4 1-746)
chain: MNLEDISMIMKLFDSNMHKLQGNLRSYQTEMHQIHKELTEKLSHADLLYRSLIPLHDHLVASLSEVNAHVMKLNVQLHINRQSVRLGDYEYYEKSIDNPYSSIRSGLQAIEKPGCAEAICQSSKPAFVECLPSSTSEEVPVVAVQEASSTNQLDAISVVNENLSEERDATPQPLAVSKNMEETMPSNPFHEQLEGSLEEIPVGSKIVVETEKANNPVRSEASAPATSDNQSLLAAKQGTQTIGTGICNKISKSTINMPNNWQLENPTEVTAASIEKVNKLPKSPRNRFLLPPKGGTETTRRDIYNQILKDMAAFPENTIVTAVLASVDVTDNCAYVAKWDESSDRIKKVLQRQLPLQELDQLPDYGDIFAVLDSINNIITRITINSSSAGGGYDAYLIDFGEHIHFDGNETIFKLPDDIKRLPAQAIRCDLINCDIANMHCFVNTYIKIRVHENNNSTLVAEPVIDRLSRPTKTNTTKYPAGITEDDMAMLNEIDESTSDPLKAVLGFRPKDEQRICRHYDPKLNGCFKGNNCRFAHEPFAPNGATKDVELARALPETIFDTTVHFEIGSIVGILITFINGPTEVYGQFLDGSPPLVWDKKDVPENKRTFKSKPRLLDIVLALYSDGCFYRAQIIDEFPSEYMIFYVDYGNTEFVPLSCLAPCENVDSFKPHRVFSFHIEGIVRSKNLTHQKTIECIEYLKSKLLNTEMNVHLVQRLPDGFLIRFLDDWKYIPEQLLQRNYAQVSQ

What was measured:
Assay in all cases: ReLo
[1] = biological target: T1, SoYb CS domain (Drosophila)
[2] = biological target: T2, BoYb CS_MUT2 (Drosophila)
[3] = biological target: T3, BoYb CS_MUT1 (Drosophila)
Vasa (Drosophila) = biological target: T4, Vasa (Drosophila)

| Binder | binding [1] | binding [2] | binding [3] | binding (Vasa (Drosophila)) |
| --- | --- | --- | --- | --- |
| B1 | binds | no binding | no binding | – |
| B2 | – | – | – | binds weakly |
